Measurements reported in paper PMC10618185.
These are yes or no findings as the source states them, for the method shown. Binding seen in cells or lysates may run through a third protein. Some entries that bind do so weakly or less than the wild type. Tags and fused reporters may be left off the sequences shown.

Biological target: T1, Myc-VPS8 (human (cDNA from HeLa Kyoto cells)) (UniProt Q8N3P4)
T1 sequence: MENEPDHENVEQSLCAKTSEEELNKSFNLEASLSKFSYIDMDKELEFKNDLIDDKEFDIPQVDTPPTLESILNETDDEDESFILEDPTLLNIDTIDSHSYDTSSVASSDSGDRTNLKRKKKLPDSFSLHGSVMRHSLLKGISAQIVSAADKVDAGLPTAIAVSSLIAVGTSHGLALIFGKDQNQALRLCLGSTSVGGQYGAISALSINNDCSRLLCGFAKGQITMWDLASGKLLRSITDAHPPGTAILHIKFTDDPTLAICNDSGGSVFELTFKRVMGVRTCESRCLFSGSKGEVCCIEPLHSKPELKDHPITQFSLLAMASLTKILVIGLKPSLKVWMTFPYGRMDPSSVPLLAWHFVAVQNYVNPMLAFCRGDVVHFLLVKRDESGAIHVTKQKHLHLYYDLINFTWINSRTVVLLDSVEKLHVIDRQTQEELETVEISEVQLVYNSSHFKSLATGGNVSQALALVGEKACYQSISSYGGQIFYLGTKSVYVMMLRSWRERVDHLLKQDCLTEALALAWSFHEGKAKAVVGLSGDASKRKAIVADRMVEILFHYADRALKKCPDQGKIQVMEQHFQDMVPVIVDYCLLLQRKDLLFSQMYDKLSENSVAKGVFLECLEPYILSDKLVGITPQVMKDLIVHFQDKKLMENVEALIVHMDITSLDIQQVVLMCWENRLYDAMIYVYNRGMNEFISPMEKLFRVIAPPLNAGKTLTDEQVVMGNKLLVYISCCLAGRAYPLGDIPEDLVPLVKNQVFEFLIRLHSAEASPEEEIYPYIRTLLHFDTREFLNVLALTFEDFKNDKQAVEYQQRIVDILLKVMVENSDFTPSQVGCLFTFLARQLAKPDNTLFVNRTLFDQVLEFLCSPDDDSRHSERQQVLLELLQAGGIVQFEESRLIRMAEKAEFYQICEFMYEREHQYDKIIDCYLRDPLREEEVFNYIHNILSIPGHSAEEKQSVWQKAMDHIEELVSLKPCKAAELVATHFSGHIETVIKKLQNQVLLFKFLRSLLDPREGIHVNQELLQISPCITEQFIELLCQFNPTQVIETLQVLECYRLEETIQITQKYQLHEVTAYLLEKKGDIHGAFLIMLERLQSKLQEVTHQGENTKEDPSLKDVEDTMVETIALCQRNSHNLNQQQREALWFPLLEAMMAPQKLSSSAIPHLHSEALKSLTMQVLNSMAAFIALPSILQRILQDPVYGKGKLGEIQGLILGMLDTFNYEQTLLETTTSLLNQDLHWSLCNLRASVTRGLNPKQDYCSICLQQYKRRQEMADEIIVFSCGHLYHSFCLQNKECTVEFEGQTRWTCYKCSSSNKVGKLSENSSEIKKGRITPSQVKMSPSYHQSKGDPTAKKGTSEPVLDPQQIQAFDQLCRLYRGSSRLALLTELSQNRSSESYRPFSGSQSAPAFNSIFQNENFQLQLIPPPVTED
Assay: co-IP; WT HeLa cells with single expression of Myc-VPS41, Myc-VPS8, HA-VPS39 or HA-VPS3; lysate in PBS; IP with anti-Myc or anti-HA antibody and Protein G magnetic beads; endogenous partners detected by western blotting

B1: endogenous VPS3 (protein, UniProt Q8WUH2 1-860)
chain: MMSIKAFTLVSAVERELLMGDKERVNIECVECCGRDLYVGTNDCFVYHFLLEERPVPAGPATFTATKQLQRHLGFKKPVNELRAASALNRLLVLCDNSISLVNMLNLEPVPSGARIKGAATFALNENPVSGDPFCVEVCIISVKRRTIQMFLVYEDRVQIVKEVSTAEQPLAVAVDGHFLCLALTTQYIIHNYSTGVSQDLFPYCSEERPPIVKRIGRQEFLLAGPGGLGMFATVAGISQRAPVHWSENVIGAAVSFPYVIALDDEFITVHSMLDQQQKQTLPFKEGHILQDFEGRVIVATSKGVYILVPLPLEKQIQDLLASRRVEEALVLAKGARRNIPKEKFQVMYRRILQQAGFIQFAQLQFLEAKELFRSGQLDVRELISLYPFLLPTSSSFTRSHPPLHEYADLNQLTQGDQEKMAKCKRFLMSYLNEVRSTEVANGYKEDIDTALLKLYAEADHDSLLDLLVTENFCLLTDSAAWLEKHKKYFALGLLYHYNNQDAAAVQLWVNIVNGDVQDSTRSDLYEYIVDFLTYCLDEELVWAYADWVLQKSEEVGVQVFTKRPLDEQQKNSFNPDDIINCLKKYPKALVKYLEHLVIDKRLQKEEYHTHLAVLYLEEVLLQRASASGKGAEATETQAKLRRLLQKSDLYRVHFLLERLQGAGLPMESAILHGKLGEHEKALHILVHELQDFAAAEDYCLWCSEGRDPPHRQQLFHTLLAIYLHAGPTAHELAVAAVDLLNRHATEFDAAQVLQMLPDTWSVQLLCPFLMGAMRDSIHARRTMQVALGLARSENLIYTYDKMKLKGSSIQLSDKKLCQICQNPFCEPVFVRYPNGGLVHTHCAASRHTNPSSSSPGTRT
- binding: binds
